In patent US12168067B2, “Photostable antioxidant cosmetic composition” (priority 2019, dated 2024):
For at least one compound, name, drawing or mass did not settle the structure.

Assay: Solution-based assay: residual trans-polydatin after irradiation with 1 molar equivalent of isomerization stabilizer
Type: physicochemical
Settings: 0.5% by weight trans-polydatin in solution + 1 molar equivalent stabilizer; irradiated at 365 nm, 5 J total energy; HPLC-UV; per stabilizer

**Q.** With `O=c1c2cc(O)c(O)cc2oc2cc(O)c([C@@H]3O[C@H](CO)[C@@H](O)[C@H](O)[C@H]3O)c(O)c12` [Mangiferin] as the compound, how does the “Average of Relative Residual Trans-polydatin (percent)” value read?
**A.** The value was 44.6%.
